Results of single-concentration screens

The values are deposited in ChEMBL (CHEMBL3988442, “University of Dundee, Small-Polar-MMV Screening Library” (2021)).

Each number is a percent effect as filed. The controls that fix the scale are not given in the record; negative values are as filed. Compounds were drawn at random from those tested, without regard to their results. Two or more numbers in one place are separate tests of the same structure; such repeats can differ widely.

A: 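Phenotypic screen: M. tuberculosis growth, cholesterol and DPPC medium, 4 days; the read-out is not stated. Tested at 50 µM. Higher reads as more growth inhibition (inferred: compounds with an IC50 in retests scored well above the rest). Size under these conditions: about 69,000 compounds, about 370 of them at 50% or above in at least one test.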
B: 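Growth of Mycobacterium tuberculosis over 3 days (7H9 medium with glucose and tyloxapol); the read-out is not stated. Concentration: 50 µM. Direction is inferred from retests: higher values go with more growth inhibition. About 69,000 compounds were tested under these conditions; 1.1% (about 760) showed 50% or more at least once.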

With O=C(c1ccncn1)N1CCC[C@]2(C[C@@H](OCC3CC3)CO2)C1 the screen gave A: -4.187% & 20.73%; B: -5.977%. For Cc1c(NC(C)C(C)C)cccc1C(=O)NCc1nccn1C (stereo not shown) the result was A: -3.915%; B: 16.93%. CN1CCN(CCCNC(=O)C2CCCCC2)CC1 read A: -14.88%; B: -15.55% & -3.408%. O=C(NC1CC2(CCN(CCO)CC2)Oc2ccccc21)c1csnn1 (stereo not shown) gave A: 0.1377%; B: -0.7027%. CCNc1cc2c(nn1)CCN(C(=O)c1ccsc1)C2 gave A: 14.68%; B: 42.25%. With CC1CCc2nn(CCNC(=O)c3ccco3)c(=O)cc2C1 (stereo not shown) the screen gave A: -18.22%; B: 6.578%. For CCCn1cnc2c(cnn2-c2cccc(C)c2C)c1=O the result was A: 6.211%; B: 2.756%.

CC(=O)c1ccc(OCC(=O)NS(=O)(=O)c2ccc(Cl)s2)cc1 gave A: 10.32%; B: 30.88% & -4.281%. For Cc1ncc(CNC(=O)NCc2c(F)cccc2OC(F)F)s1 the result was A: 0.6732%; B: -1.728%. With O=C(O)C(F)(F)F.[H][C@@]12CCN(CC(=O)N(C)C)C(=O)[C@@]1([H])CN(S(C)(=O)=O)C2 the screen gave A: -4.628%; B: -57.68%. CCN(CC)CC(=O)N1CCN(c2nc(C)cc(OC)n2)CC1 gave A: -3.091%; B: -7.358%. COc1cccc(-c2cc(C(=O)NCCCn3cnnc3)[nH]n2)c1 gave A: -3.27%; B: 3.585%. Result for CCn1nc(C(=O)N2CCCC(n3cncn3)C2)ccc1=O (stereo not shown) was A: 5.131%; B: 0.6794%. Result for CC(Cc1c(F)cccc1F)NC(=O)CSCC(N)=O (stereo not shown) was A: -8.961%; B: -17.49%.

For CCN(CC)c1ncnc2c1CCN(c1ccc(C)nn1)CC2 the result was A: 14.43%; B: -12.19%. Result for CCc1nc2n(n1)CC(NCc1cc3ccccc3o1)CC2 (stereo not shown) was A: 1.479%; B: -10.39% & 9.571%. Result for Cc1ccccc1C1(CNc2nnc(C)c(C)c2C#N)CCOCC1 was A: 21.77%; B: -15.82%. Result for COc1ccc(Nc2ncccc2C#N)cc1N1CCCC1=O was A: 5.433%; B: 12.4% & 1.182%. For NS(=O)(=O)CCCC(=O)N1CCC2(CC1)c1ccccc1CC2O (stereo not shown) the result was A: -7.588% & -17.45%; B: -11.1%. For CN(CC1CCOC1)c1ncc(Br)cn1 (stereo not shown) the result was A: -14.11% & -6.349%; B: -11.73%. With CCOCC1CN(CCOCc2ccccc2)Cc2c1cnn2C (stereo not shown) the screen gave A: -7.712% & 5.734%; B: -28.8% & 11.22%.

Result for COCCNc1nc2c(c(NCc3ccncc3)n1)CCNCC2 was A: 10.93%; B: 3.052%. Result for Cc1ccc2c(c1)C(NC1CC1)CC21CCNCC1.Cl (stereo not shown) was A: -10.35%; B: -22.27%. For CC(C)NC(=O)c1ccc2c(c1)C(c1nc[nH]n1)CN2C (stereo not shown) the result was A: -6.8%; B: -3.915%. For Cc1ccc(-c2nnc([C@H]3CCN(C4CCC4)C3)o2)cc1 the result was A: 5.276%; B: 2.804% & 26.01%. Cc1cc(NC(=O)Cc2ccc3c(c2)OCO3)n(C)n1 read A: -0.4188%; B: 26.56%. With Cc1nc(CNC(=O)Nc2cc(F)ccc2N2CCN(C)CC2)no1 the screen gave A: 18.52%; B: 16.56%. Result for O=S(=O)(NCC1COc2ccccc2C1)N1CCCC1 (stereo not shown) was A: -3.326%; B: 5.665%.

Cc1cc(CN2CCN(C(=O)NC(C)Cn3ccnc3)CC2)on1 (stereo not shown) read A: -0.5957%; B: -39.66%. For CS(=O)(=O)c1ccc(CNC(=O)N2CCC(CO)CC2)cc1 the result was A: 0.8727%; B: -7.935%. Result for O=C(CN1CCCNC1=O)N1CCCC(c2nccs2)C1 (stereo not shown) was A: -41.21% & -0.3493%; B: -7.666%. CNc1nc2c(c(C(=O)N3CCCC3)n1)CN(C(=O)CCSC)CC2 gave A: 13.9%; B: -2.628%. Cn1nc(Cn2cccn2)c2c1CN(Cc1ccoc1)C2.O=C(O)C(F)(F)F gave A: 2.159%; B: -38.95% & 1.31%. NC(=O)C1CCN(C(=O)NCc2cccnc2OCC(F)(F)F)C1 (stereo not shown) gave A: 3.507%; B: -0.7052% & -1.124%. CC(=O)N1CCC(c2cc(C(F)(F)F)nc3nccn23)CC1 read A: 3.223%; B: 9.333%.

CC(C)CN1CCCn2nc(CNC(=O)CN3CCOC3=O)cc2C1 read A: 0.416%; B: -4.351% & -3.2%.

Repeated from the top, 3 entries:

| compound | A | B |
|---|---|---|
| `O=C(c1ccncn1)N1CCC[C@]2(C[C@@H](OCC3CC3)CO2)C1` | -4.187 & 20.73 | -5.977 |
| `Cc1c(NC(C)C(C)C)cccc1C(=O)NCc1nccn1C` (stereo not shown) | -3.915 | 16.93 |
| `CN1CCN(CCCNC(=O)C2CCCCC2)CC1` | -14.88 | -15.55 & -3.408 |